No constants are given. Whether binding was seen depends on the method and setting. Binding seen in cells or lysates may run through a third protein. Some entries that bind do so weakly or less than the wild type.

Amino acid sequences for entries named in this document (tags omitted).
UniProt O60675: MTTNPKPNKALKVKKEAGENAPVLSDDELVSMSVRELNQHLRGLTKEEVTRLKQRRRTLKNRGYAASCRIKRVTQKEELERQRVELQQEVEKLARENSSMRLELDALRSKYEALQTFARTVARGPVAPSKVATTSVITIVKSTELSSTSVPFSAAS
UniProt P05412: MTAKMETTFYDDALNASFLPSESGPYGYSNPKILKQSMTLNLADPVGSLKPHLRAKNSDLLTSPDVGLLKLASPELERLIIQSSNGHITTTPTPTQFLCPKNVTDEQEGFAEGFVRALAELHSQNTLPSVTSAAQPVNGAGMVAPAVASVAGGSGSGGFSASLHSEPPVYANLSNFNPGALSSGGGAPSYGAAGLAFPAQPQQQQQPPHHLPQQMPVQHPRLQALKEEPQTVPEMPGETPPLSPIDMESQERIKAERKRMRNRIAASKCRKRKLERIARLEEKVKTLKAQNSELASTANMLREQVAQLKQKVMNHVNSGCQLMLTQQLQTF
UniProt P19838: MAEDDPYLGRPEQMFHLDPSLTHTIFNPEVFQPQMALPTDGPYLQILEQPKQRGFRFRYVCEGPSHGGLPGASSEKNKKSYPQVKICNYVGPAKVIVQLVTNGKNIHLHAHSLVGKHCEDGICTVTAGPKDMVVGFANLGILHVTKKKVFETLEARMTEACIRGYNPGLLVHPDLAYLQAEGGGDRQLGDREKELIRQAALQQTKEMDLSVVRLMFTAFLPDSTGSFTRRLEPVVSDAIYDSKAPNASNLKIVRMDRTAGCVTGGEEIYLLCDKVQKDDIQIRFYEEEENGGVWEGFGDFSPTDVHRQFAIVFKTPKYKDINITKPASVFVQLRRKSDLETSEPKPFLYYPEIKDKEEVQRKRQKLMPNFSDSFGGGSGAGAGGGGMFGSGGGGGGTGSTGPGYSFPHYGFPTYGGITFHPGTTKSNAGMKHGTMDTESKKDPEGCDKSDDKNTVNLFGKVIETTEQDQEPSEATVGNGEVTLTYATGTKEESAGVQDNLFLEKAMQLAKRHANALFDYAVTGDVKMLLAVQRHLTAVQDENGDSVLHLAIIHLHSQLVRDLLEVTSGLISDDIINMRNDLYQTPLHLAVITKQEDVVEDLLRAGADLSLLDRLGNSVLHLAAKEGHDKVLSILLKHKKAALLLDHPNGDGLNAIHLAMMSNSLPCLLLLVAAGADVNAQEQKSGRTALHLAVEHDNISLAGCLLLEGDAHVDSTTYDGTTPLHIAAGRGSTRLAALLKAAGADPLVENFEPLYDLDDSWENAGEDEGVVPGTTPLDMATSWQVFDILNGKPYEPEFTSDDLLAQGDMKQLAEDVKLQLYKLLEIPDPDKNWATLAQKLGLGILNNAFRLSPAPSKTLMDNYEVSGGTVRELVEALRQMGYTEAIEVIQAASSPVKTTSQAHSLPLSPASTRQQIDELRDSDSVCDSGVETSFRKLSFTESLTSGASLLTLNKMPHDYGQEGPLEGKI
UniProt Q16236: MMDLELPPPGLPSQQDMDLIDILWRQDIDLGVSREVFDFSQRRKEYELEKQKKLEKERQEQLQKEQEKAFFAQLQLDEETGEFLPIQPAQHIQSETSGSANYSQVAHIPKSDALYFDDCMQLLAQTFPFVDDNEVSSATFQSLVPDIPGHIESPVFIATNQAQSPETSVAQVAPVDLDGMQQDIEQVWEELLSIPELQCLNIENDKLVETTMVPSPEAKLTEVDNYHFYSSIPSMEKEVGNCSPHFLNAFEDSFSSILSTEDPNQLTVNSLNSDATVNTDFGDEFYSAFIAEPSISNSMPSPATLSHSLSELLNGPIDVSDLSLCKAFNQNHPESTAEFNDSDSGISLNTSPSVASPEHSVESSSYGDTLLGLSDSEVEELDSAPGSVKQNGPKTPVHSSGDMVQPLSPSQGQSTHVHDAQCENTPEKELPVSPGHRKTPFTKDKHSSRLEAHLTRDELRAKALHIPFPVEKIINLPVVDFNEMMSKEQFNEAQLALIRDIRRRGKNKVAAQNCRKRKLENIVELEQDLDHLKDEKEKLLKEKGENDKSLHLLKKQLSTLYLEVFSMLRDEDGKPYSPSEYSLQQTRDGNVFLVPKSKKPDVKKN
UniProt Q53GL0: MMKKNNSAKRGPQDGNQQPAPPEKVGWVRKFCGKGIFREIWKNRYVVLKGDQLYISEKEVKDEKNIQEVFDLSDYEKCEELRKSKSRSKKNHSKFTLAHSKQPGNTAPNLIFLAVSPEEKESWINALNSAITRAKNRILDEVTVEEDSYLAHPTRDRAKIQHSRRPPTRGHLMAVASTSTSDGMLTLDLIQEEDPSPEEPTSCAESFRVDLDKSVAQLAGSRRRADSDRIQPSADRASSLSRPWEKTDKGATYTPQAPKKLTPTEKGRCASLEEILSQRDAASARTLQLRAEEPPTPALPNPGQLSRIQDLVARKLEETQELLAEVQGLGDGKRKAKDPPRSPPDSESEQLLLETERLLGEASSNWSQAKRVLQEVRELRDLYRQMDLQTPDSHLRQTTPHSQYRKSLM
UniProt Q04206: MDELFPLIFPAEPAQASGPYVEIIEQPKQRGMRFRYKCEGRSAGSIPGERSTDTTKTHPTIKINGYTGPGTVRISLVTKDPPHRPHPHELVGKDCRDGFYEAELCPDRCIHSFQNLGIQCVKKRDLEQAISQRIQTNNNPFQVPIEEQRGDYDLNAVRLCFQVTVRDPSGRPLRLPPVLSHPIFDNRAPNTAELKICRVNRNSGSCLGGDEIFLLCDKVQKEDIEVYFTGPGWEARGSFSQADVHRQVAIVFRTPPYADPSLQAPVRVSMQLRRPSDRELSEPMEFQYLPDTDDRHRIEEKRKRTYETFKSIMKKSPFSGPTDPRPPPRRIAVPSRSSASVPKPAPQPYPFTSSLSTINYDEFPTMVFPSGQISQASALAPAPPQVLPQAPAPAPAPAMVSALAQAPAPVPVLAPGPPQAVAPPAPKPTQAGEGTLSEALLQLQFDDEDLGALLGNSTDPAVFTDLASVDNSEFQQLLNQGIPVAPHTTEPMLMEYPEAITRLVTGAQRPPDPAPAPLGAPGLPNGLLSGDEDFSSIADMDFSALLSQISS

Experimental findings from publication PMC2978116 are described below.

Experiment in all cases: co-IP; miniaturized sandwich immunoassay platform (MSIP): lysate of co-transfected HEK293 cells (EBC buffer) incubated at room temperature on aldehyde slides spotted with anti-FLAG antibody; FLAG-bait captured, myc-prey detected with anti-myc-Cy3 (1:200); read-out net fluorescence intensity (NFI) after subtraction of murine IgG spots and of the control without bait
Assay [1] addresses MafK (UniProt O60675).
Assay [2] addresses c-Jun (UniProt P05412).
The target of assay [3] is NF-κB1 (UniProt P19838).

Take Nrf2 (from UniProt Q16236 1-605): the binding entry in assay [1] is “binds”. Turning to CKIP-1 (from UniProt Q53GL0 1-409), the binding entry in assay [2] was “binds”. RelA (from UniProt Q04206 1-551): the binding result in assay [3] was “binds”.
